Source: PubChem BioAssay AID1487 (National Center for Advancing Translational Sciences (NCATS), 2009)
Where “and” joins values, the source holds several entries; their conditions need not be identical. Equal entries are not always repeated. The list shows a part of the results. These are further read-outs of the screen, such as a control signal, another cell line or another target. No call is given for them. Most of these compounds were active or inconclusive in the main read-out, so they are no random draw. Words in brackets tell the shape of the fitted curve; partial curves, single points and poor fits give uncertain potencies.

Test: qHTS Assay for Modulators of Lamin A Splicing
Settings: HeLa LMNA splicing GFP/RFP minigene ratio, 48 h
Procedure, shortened: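 S3 HeLa cells stably expressing lamin A-EGFP splicing minigene plus DsRed2, 600 cells/well, 48 h compound exposure at 37C. Laser-scanning cytometry; analysed as GFP (500-530 nm)/RFP (575-640 nm) total intensity ratio; 0.5% DMSO vehicle.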

[1] = measured here: GFP splicing reporter channel
[2] = measured here: RFP viability control channel

**Q.** For `Cc1oc(=O)c(NC(=O)c2ccccc2)cc1C(=O)c1ccccc1`, which AC50 [1] is on record?
**A.** The AC50 was 35.5 µM [falling, single point].

**Q.** For `Cc1ccc(-c2cc(C(=O)NCCCn3ccnc3)no2)cc1`, which AC50 [1] is on record?
**A.** The AC50 was 3.16 µM [falling, partial curve].

**Q.** What about the AC50 [2] of the same compound?
**A.** The AC50 was 7.94 µM [falling, partial curve, poor fit].

**Q.** With `N/C(=N\OC(=O)COc1ccc(Cl)cc1Cl)c1ccncc1` as the compound, how does the AC50 [2] read?
**A.** The AC50 was 0.0794 µM [falling, full curve, poor fit].

**Q.** For `CC(C)C(NC(=O)c1ccc(C(C)(C)C)cc1)C(=O)OCC(=O)NC(=O)Cc1ccccc1` (centres undefined), which AC50 [1] is on record?
**A.** The AC50 was 35.5 µM [rising, single point].

**Q.** For `Cc1cc(C(=O)Cn2nc(C(=O)O)c3ccccc3c2=O)c(C)n1-c1ccccc1`, which AC50 [2] is on record?
**A.** The AC50 was 12.6 µM [rising, single point].

**Q.** For `Nc1nc(Cl)nc2c1ncn2[C@H]1C[C@H](O)[C@@H](CO)O1`, which AC50 [1] is on record?
**A.** The AC50 was 22.4 nM [falling, full curve, poor fit] and 70.8 nM [falling, full curve] and 7.94 nM [falling, full curve, poor fit].

**Q.** What about the AC50 [2] of the same compound?
**A.** Its AC50 is 708 nM [rising, full curve] and 794 nM [rising, full curve].

**Q.** For `CC1CCCCC1n1c(=S)[nH]c2ccccc2c1=O` (centres undefined), which AC50 [2] is on record?
**A.** Its AC50 is 31.6 µM [rising, single point].

**Q.** For `Cc1cccc(N(CC(=O)NC(C)(C)C)C(=O)CNC(=O)c2cccs2)c1`, which AC50 [2] is on record?
**A.** Its AC50 is 1.26 µM [rising, full curve, poor fit].

**Q.** Which AC50 [2] does the source give for `CC(NC(=O)C1CCN(C(=O)N2CCOc3ccc(Cl)cc32)CC1)c1ccccc1` (centres undefined) here?
**A.** The AC50 was 35.5 µM [rising, single point].

**Q.** With `Cn1c(N2CCCCC2)nc2c1c(=O)n(Cc1cccc(Br)c1)c(=O)n2C` as the compound, how does the AC50 [1] read?
**A.** The AC50 was 8.91 µM [rising, partial curve].

**Q.** What about the AC50 [2] of the same compound?
**A.** The AC50 was 5.01 µM [rising, partial curve].

**Q.** For `Cc1ccc(-n2nc3ccc(NC(=O)/C=C/c4ccco4)cc3n2)cc1C`, which AC50 [2] is on record?
**A.** The AC50 was 25.1 µM [falling, single point].

**Q.** Which AC50 [2] does the source give for `CC(C)(C)C1CCc2c(sc(N)c2C(N)=O)C1` (centres undefined) here?
**A.** The AC50 was 35.5 µM [rising, single point].

**Q.** Which AC50 [1] does the source give for `NNC(=O)/C(=C\c1ccc(Br)cc1)NC(=O)c1cccs1` here?
**A.** Its AC50 is 2.82 µM [falling, single point].

**Q.** And the AC50 [2]?
**A.** The AC50 was 0.01 µM [falling, full curve, poor fit].

**Q.** Which AC50 [2] does the source give for `Cc1[nH]c2ccccc2c1SCCNC(=O)c1ccc(Br)o1` here?
**A.** The AC50 was 31.6 µM [rising, single point].

**Q.** With `Cc1ccc(Cl)cc1N1CCN(CCCNC(=O)C2COc3ccccc3C2)CC1` (centres undefined) as the compound, how does the AC50 [2] read?
**A.** The AC50 was 7.08 µM [falling, full curve, poor fit].
